In the supplement of paper PMC12823440, “Inhibitors supercharge kinase turnover through native proteolytic circuits” (Nature, 2025):
The other results are listed elsewhere or left out. Hit calls seldom repeat between salt and free forms of one compound.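 In K562 cells expressing nanoluciferase-fused kinases, luminescence was recorded at 4 h intervals between 2 and 18 h, normalized as percent of control with DMSO at 100% and a positive control at 0%. A significant (2 sigma) signal drop marks a time point as decreased. The authors' rule for a hit is not shown and takes in more than the number of time points.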

Amino acid sequences for entries named in this document (tags omitted). A change or cut given only in a name is not applied to a line headed by its entry.
UniProt O75460: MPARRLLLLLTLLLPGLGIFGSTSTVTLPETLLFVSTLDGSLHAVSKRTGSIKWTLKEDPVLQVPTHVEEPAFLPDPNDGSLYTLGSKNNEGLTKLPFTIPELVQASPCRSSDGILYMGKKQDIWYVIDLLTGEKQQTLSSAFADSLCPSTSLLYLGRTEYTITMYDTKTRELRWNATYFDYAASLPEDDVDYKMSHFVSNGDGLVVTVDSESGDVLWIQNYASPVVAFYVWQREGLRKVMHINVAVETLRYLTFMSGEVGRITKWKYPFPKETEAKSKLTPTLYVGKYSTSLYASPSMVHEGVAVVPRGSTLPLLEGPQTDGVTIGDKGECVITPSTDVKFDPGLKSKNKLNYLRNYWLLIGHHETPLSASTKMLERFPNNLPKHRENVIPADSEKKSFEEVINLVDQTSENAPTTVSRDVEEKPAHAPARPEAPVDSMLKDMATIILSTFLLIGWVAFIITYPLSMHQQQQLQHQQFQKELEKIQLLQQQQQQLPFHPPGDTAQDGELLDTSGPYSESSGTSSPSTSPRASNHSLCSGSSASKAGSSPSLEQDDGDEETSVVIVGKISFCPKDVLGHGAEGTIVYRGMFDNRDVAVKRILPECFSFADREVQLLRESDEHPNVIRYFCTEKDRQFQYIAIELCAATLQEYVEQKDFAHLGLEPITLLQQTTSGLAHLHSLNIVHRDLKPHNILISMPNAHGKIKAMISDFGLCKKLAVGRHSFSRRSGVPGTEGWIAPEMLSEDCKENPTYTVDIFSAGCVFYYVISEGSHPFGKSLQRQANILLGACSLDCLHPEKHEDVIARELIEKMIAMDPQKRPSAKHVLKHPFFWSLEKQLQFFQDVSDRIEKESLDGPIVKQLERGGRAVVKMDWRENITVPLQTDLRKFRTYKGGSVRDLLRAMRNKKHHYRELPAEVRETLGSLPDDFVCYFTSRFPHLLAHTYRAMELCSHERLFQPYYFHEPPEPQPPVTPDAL
UniProt P11362, whole entry, looked up: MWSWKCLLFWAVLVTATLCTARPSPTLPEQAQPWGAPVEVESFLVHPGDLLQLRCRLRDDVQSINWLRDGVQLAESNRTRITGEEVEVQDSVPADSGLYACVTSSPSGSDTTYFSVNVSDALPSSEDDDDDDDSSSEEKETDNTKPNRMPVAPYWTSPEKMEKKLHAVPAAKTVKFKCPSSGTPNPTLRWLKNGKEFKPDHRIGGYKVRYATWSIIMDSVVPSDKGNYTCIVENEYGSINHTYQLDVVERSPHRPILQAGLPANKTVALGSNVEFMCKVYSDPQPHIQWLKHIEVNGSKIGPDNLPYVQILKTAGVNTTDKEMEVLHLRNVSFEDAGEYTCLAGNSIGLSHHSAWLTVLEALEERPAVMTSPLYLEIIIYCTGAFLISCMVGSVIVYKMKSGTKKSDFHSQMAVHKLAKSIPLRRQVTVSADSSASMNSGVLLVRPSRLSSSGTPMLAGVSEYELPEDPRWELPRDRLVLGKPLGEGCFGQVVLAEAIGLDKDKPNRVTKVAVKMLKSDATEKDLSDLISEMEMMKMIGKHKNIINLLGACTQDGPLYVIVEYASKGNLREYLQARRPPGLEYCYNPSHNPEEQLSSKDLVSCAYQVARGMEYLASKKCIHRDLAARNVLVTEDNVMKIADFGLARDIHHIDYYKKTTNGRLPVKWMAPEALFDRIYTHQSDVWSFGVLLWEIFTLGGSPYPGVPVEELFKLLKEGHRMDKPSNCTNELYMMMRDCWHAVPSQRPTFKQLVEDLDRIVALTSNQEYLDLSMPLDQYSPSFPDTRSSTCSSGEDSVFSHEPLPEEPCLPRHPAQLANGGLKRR
UniProt P21802, whole entry, looked up: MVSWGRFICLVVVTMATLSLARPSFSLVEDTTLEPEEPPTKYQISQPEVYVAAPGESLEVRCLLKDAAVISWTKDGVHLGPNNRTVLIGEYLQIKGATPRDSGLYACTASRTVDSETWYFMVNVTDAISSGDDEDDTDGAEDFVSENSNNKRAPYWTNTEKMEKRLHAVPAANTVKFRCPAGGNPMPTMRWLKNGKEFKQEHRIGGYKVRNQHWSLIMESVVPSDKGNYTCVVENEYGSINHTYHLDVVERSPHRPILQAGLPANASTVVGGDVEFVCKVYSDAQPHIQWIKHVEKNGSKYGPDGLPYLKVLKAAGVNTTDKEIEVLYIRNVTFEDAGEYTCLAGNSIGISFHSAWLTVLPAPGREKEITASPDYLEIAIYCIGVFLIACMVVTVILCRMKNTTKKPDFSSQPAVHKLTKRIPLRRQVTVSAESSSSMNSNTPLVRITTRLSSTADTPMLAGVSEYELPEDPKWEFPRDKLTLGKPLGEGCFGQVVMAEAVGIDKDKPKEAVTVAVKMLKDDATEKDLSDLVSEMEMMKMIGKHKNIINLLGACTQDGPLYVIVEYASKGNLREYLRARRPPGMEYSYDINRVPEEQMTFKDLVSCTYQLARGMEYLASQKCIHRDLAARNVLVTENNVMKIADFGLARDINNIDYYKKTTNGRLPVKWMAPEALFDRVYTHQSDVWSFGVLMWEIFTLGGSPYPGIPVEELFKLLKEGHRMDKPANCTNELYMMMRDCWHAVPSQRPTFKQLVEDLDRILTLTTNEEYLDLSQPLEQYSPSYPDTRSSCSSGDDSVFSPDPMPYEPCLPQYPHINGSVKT
UniProt P22607, whole entry, looked up: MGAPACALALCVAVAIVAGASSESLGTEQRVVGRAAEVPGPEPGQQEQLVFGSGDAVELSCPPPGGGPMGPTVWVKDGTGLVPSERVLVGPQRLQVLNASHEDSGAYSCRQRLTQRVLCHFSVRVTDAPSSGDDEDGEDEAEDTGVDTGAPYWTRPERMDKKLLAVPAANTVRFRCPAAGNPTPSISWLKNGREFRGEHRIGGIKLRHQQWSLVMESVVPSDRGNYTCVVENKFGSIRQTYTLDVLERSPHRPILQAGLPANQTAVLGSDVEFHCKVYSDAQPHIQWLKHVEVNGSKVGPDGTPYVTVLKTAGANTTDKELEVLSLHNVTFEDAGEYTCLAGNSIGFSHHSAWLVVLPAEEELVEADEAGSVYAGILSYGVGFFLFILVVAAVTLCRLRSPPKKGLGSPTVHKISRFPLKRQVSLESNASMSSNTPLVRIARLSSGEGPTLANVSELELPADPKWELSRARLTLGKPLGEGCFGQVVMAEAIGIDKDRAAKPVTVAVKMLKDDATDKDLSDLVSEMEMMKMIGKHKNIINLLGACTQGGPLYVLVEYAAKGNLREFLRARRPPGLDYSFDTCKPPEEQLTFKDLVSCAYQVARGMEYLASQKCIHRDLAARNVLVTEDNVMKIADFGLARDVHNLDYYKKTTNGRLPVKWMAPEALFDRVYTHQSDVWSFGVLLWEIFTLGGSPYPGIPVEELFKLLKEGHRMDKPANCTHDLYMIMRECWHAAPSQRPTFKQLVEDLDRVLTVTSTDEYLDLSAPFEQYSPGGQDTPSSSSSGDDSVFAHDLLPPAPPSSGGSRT
UniProt P36888, whole entry: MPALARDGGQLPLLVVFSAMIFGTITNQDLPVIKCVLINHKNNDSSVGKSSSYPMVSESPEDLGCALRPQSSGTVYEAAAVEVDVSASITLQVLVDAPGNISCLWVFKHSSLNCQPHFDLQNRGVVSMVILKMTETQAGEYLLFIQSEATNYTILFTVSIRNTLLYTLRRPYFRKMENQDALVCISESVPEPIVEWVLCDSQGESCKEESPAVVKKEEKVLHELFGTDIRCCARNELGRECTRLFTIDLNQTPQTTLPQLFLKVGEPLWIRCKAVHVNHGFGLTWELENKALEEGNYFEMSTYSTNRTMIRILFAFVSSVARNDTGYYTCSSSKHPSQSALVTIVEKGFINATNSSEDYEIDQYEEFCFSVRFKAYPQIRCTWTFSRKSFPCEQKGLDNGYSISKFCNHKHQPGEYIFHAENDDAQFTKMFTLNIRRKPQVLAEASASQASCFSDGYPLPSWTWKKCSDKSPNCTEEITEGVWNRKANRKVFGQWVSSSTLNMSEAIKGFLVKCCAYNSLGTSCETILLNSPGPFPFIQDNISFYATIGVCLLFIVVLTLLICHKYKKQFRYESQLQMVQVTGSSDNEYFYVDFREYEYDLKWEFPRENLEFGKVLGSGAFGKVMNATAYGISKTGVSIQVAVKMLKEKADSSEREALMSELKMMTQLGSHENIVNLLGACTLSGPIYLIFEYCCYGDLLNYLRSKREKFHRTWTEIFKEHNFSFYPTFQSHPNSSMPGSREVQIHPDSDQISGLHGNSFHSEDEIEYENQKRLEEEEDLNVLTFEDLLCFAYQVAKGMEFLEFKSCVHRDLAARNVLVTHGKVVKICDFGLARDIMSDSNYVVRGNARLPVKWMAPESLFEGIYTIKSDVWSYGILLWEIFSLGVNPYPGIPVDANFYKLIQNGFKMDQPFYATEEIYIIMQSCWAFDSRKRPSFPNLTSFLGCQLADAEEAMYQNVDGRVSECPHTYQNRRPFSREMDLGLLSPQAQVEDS
UniProt P06241, whole entry, looked up: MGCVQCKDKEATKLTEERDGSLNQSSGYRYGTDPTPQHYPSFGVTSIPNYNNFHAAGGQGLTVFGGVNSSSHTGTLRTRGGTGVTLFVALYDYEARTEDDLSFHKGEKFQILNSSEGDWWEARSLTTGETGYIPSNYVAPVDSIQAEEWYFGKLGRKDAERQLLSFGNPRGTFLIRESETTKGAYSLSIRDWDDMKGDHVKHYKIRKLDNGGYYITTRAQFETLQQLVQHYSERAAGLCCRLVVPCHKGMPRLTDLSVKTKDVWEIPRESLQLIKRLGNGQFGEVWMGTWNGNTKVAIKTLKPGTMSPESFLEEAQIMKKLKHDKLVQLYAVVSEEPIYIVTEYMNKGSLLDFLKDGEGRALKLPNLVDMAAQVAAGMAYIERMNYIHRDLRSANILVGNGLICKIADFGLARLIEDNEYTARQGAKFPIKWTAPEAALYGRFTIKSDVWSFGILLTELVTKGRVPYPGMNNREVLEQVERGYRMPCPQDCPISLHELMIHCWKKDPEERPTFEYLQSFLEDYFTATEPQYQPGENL
UniProt P14616: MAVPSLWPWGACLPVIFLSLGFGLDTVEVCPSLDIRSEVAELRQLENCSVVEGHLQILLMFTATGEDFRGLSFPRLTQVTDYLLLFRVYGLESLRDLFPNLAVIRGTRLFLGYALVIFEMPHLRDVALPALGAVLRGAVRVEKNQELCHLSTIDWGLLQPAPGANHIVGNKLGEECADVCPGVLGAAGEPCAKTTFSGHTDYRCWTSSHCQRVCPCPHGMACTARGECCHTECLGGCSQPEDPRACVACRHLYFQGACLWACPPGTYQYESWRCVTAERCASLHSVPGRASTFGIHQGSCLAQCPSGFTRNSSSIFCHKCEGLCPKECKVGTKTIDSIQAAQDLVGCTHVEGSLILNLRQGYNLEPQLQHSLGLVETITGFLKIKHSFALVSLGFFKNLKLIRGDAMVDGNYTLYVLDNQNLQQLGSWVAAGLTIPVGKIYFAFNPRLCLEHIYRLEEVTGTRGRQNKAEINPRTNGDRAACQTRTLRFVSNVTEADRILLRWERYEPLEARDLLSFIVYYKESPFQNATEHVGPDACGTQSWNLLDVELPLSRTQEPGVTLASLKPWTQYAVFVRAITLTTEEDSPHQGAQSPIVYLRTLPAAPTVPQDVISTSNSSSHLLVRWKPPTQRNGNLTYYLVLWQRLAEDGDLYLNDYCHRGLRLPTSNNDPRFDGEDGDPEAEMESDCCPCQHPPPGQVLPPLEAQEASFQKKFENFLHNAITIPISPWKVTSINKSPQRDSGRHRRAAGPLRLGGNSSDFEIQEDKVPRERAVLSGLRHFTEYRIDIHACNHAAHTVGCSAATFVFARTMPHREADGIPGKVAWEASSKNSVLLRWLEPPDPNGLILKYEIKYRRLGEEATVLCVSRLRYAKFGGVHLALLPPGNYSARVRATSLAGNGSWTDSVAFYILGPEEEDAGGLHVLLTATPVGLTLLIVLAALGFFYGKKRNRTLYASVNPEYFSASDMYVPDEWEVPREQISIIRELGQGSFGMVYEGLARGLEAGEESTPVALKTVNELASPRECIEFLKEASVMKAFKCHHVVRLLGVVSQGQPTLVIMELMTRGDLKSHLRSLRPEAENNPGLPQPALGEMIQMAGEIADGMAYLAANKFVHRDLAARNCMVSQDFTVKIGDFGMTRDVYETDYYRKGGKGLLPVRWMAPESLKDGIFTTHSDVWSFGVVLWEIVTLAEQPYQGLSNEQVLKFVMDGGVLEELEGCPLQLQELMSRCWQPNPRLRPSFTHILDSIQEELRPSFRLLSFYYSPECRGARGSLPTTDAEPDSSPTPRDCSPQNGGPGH

Columns and labels:
Test in all cases: kinase-Nluc reporter destabilization hit call (1 = scored as downregulated) (binary); higher = compound decreases kinase abundance
Conditions in all cases: K562; 2-18 h
ERN1 = ERN1 (UniProt O75460)
FGFR1 = FGFR1 (UniProt P11362)
FGFR2 = FGFR2 (UniProt P21802)
FGFR3 = FGFR3 (UniProt P22607)
FGR = FGR (UniProt P09769)
FLT3 = FLT3 (UniProt P36888)
FYN = FYN (UniProt P06241)
GSK3A = GSK3A (UniProt P49840)
HER2 = HER2 (UniProt P04626)
INSRR = INSRR (UniProt P14616)

Measured: kinase-Nluc reporter destabilization hit call

C=CC(=O)N1CCC[C@@H](n2nc(C(=O)Nc3ccc(CC(=O)N(C)C)c(C)c3C)c3c(N)ncnc32)C1 (10 µM)
inactive: ERN1 = 0 | FGFR1 = 0 | FGFR2 = 0 | FGFR3 = 0 | FGR 0 | FLT3 = 0 | FYN 0 | GSK3A 0 | HER2 = 0 | INSRR 0

Cc1cc(Nc2cc(CN3CCOCC3)c3nc(C)c(Cc4ccc(Cl)cc4F)n3n2)n[nH]1 [Gandotinib] (2.5 µM)
inactive: ERN1 = 0 | FGFR1 = 0 | FGFR2 = 0 | FGFR3 = 0 | FGR 0 | FLT3 = 0 | FYN 0 | GSK3A 0 | HER2 = 0 | INSRR 0

COc1nc(-c2cccc3c2OCCO3)ccc1Nc1ccc(CN(C)C)cc1 [RAS inhibitor Abd-7] (10 µM)
inactive: ERN1 = 0 | FGFR1 = 0 | FGFR2 = 0 | FGFR3 = 0 | FGR 0 | FLT3 = 0 | FYN 0 | GSK3A 0 | HER2 = 0 | INSRR 0

CC(=O)Nc1nc(C)c(-c2nc(N3CCCC(O)C3)no2)s1 (stereo not given) (10 µM)
inactive: ERN1 = 0 | FGFR1 = 0 | FGFR2 = 0 | FGFR3 = 0 | FGR 0 | FLT3 = 0 | FYN 0 | GSK3A 0 | HER2 = 0 | INSRR 0

2 neighbouring entries out of the list so far, quoted:
COc1nc(-c2cccc3c2OCCO3)ccc1Nc1ccc(CN(C)C)cc1 [RAS inhibitor Abd-7] (10 µM)
inactive: ERN1 = 0 | FGFR1 = 0 | FGFR2 = 0 | FGFR3 = 0 | FGR 0 | FLT3 = 0 | FYN 0 | GSK3A 0 | HER2 = 0 | INSRR 0

CC(=O)Nc1nc(C)c(-c2nc(N3CCCC(O)C3)no2)s1 (stereo not given) (10 µM)
inactive: ERN1 = 0 | FGFR1 = 0 | FGFR2 = 0 | FGFR3 = 0 | FGR 0 | FLT3 = 0 | FYN 0 | GSK3A 0 | HER2 = 0 | INSRR 0

(more compounds)

c1cc(-c2cnn3cc(-c4ccc(N5CCNCC5)cc4)cnc23)c2cccnc2c1 (2.5 µM)
inactive: ERN1 = 0 | FGFR1 = 0 | FGFR2 = 0 | FGFR3 = 0 | FGR 0 | FLT3 = 0 | FYN 0 | GSK3A 0 | HER2 = 0 | INSRR 0

CCn1nc(C2CCN(C(=O)CCO)CC2)nc1-c1cnc(N)c(-c2nnc(C(C)(C)C)o2)n1 (10 µM)
inactive: ERN1 = 0 | FGFR1 = 0 | FGFR2 = 0 | FGFR3 = 0 | FGR 0 | FLT3 = 0 | FYN 0 | GSK3A 0 | HER2 = 0 | INSRR 0

O=C(O)CCc1ccc(NCc2cccc(Oc3ccccc3)c2)cc1 (10 µM)
inactive: ERN1 = 0 | FGFR1 = 0 | FGFR2 = 0 | FGFR3 = 0 | FGR 0 | FLT3 = 0 | FYN 0 | GSK3A 0 | HER2 = 0 | INSRR 0

C=CS(=O)(=O)c1ccc(Nc2nc(OCC3CCCCC3)c3[nH]cnc3n2)cc1 (2.5 µM)
inactive: ERN1 = 0 | FGFR1 = 0 | FGFR2 = 0 | FGFR3 = 0 | FGR 0 | FLT3 = 0 | FYN 0 | GSK3A 0 | HER2 = 0 | INSRR 0

O=C(Nc1ccc(Cl)cc1)C1CCCN(C(=O)c2cccc(-c3ccco3)c2)C1 (stereo not given) (2.5 µM)
inactive: ERN1 = 0 | FGFR1 = 0 | FGFR2 = 0 | FGFR3 = 0 | FGR 0 | FLT3 = 0 | FYN 0 | GSK3A 0 | HER2 = 0 | INSRR 0

CC1(COc2ccc3c(c2)ncn3-c2ccc3cccc(N4CCC(N)CC4)c3n2)COC1 [Crenolanib] (2.5 µM)
inactive: ERN1 = 0 | FGFR1 = 0 | FGFR2 = 0 | FGFR3 = 0 | FGR 0 | FLT3 = 0 | FYN 0 | GSK3A 0 | HER2 = 0 | INSRR 0

Cc1cc2ncc(-c3ccccc3)nc2cc1C (10 µM)
inactive: ERN1 = 0 | FGFR1 = 0 | FGFR2 = 0 | FGFR3 = 0 | FGR 0 | FLT3 = 0 | FYN 0 | GSK3A 0 | HER2 = 0 | INSRR 0

COc1ccc2c(=O)c(-c3ccccc3)coc2c1 [7-Methoxyisoflavone] (10 µM)
inactive: ERN1 = 0 | FGFR1 = 0 | FGFR2 = 0 | FGFR3 = 0 | FGR 0 | FLT3 = 0 | FYN 0 | GSK3A 0 | HER2 = 0 | INSRR 0

CCc1ccc(C(=O)COc2ccc(CC3SC(=O)NC3=O)cc2)nc1 (stereo not given) (10 µM)
inactive: ERN1 = 0 | FGFR1 = 0 | FGFR2 = 0 | FGFR3 = 0 | FGR 0 | FLT3 = 0 | FYN 0 | GSK3A 0 | HER2 = 0 | INSRR 0

COc1ccc(CNc2nc(N(CCO)CCO)nc3c2ncn3C(C)C)cc1 (2.5 µM)
inactive: ERN1 = 0 | FGFR1 = 0 | FGFR2 = 0 | FGFR3 = 0 | FGR 0 | FLT3 = 0 | FYN 0 | GSK3A 0 | HER2 = 0 | INSRR 0

CC(=O)NCCc1c[nH]c2ccc(O)cc12 [N-Acetyl-5-hydroxytryptamine] (10 µM)
inactive: ERN1 = 0 | FGFR1 = 0 | FGFR2 = 0 | FGFR3 = 0 | FGR 0 | FLT3 = 0 | FYN 0 | GSK3A 0 | HER2 = 0 | INSRR 0

N#Cc1ccc(-c2c(-c3ncn[nH]3)sc(N3CCOCC3)c2C#N)c(F)c1 (10 µM)
inactive: ERN1 = 0 | FGFR1 = 0 | FGFR2 = 0 | FGFR3 = 0 | FGR 0 | FLT3 = 0 | FYN 0 | GSK3A 0 | HER2 = 0 | INSRR 0

CN(CC(=O)N(Cc1ccc(C2CCCCC2)cc1)c1ccc(C(=O)O)c(O)c1)S(=O)(=O)c1c(F)c(F)c(F)c(F)c1F (2.5 µM)
inactive: ERN1 = 0 | FGFR1 = 0 | FGFR2 = 0 | FGFR3 = 0 | FGR 0 | FLT3 = 0 | FYN 0 | GSK3A 0 | HER2 = 0 | INSRR 0

O[C@H]1CC[C@H](Nc2ncc3nc(Nc4c(F)cc(F)cc4F)n([C@H]4CCOC4)c3n2)CC1 [Tanzisertib] (10 µM)
inactive: ERN1 = 0 | FGFR1 = 0 | FGFR2 = 0 | FGFR3 = 0 | FGR 0 | FLT3 = 0 | FYN 0 | GSK3A 0 | HER2 = 0 | INSRR 0

C=C(F)C(=O)N1CCN(c2nc(OC[C@@H]3CCCN3C)nc3c2CCN(c2cccc4cccc(Cl)c24)C3)C[C@@H]1CC#N (2.5 µM)
inactive: ERN1 = 0 | FGFR1 = 0 | FGFR2 = 0 | FGFR3 = 0 | FGR 0 | FLT3 = 0 | FYN 0 | GSK3A 0 | HER2 = 0 | INSRR 0

Nc1n[nH]c2cc(-c3ccc(=O)n(Cc4cccc(Cl)c4)c3)ccc12 (10 µM)
inactive: ERN1 = 0 | FGFR1 = 0 | FGFR2 = 0 | FGFR3 = 0 | FGR 0 | FLT3 = 0 | FYN 0 | GSK3A 0 | HER2 = 0 | INSRR 0

OCCN(CCO)c1ccc(C(c2ccc(Cl)cc2)c2ccc(N(CCO)CCO)cc2)cc1 (10 µM)
inactive: ERN1 = 0 | FGFR1 = 0 | FGFR2 = 0 | FGFR3 = 0 | FGR 0 | FLT3 = 0 | FYN 0 | GSK3A 0 | HER2 = 0 | INSRR 0

Nc1ncc(-c2ccc(C(=O)N3CCNCC3)cc2)nc1-c1ccc(C(F)(F)F)cc1 (10 µM)
inactive: ERN1 = 0 | FGFR1 = 0 | FGFR2 = 0 | FGFR3 = 0 | FGR 0 | FLT3 = 0 | FYN 0 | GSK3A 0 | HER2 = 0 | INSRR 0

O=C1NC(=O)C(c2cn(-c3ccccc3)nc2-c2ccc(F)cc2)N1 (stereo not given) (10 µM)
inactive: ERN1 = 0 | FGFR1 = 0 | FGFR2 = 0 | FGFR3 = 0 | FGR 0 | FLT3 = 0 | FYN 0 | GSK3A 0 | HER2 = 0 | INSRR 0

O=S(=O)(c1cccc2cnccc12)N1CCNCC1 (10 µM)
inactive: ERN1 = 0 | FGFR1 = 0 | FGFR2 = 0 | FGFR3 = 0 | FGR 0 | FLT3 = 0 | FYN 0 | GSK3A 0 | HER2 = 0 | INSRR 0

O=Nc1c(-c2c(O)[nH]c3ccccc23)[nH]c2ccccc12 [Indirubin-3'-monoxime] (2.5 µM)
inactive: ERN1 = 0 | FGFR1 = 0 | FGFR2 = 0 | FGFR3 = 0 | FGR 0 | FLT3 = 0 | FYN 0 | GSK3A 0 | HER2 = 0 | INSRR 0

CN(C)c1ncnc2nc[nH]c12 [6-(Dimethylamino)purine] (10 µM)
inactive: ERN1 = 0 | FGFR1 = 0 | FGFR2 = 0 | FGFR3 = 0 | FGR 0 | FLT3 = 0 | FYN 0 | GSK3A 0 | HER2 = 0 | INSRR 0

Cc1nc(NC(=O)NCCc2nnn(CCF)n2)sc1-c1ccc(S(C)(=O)=O)c(F)c1 (10 µM)
inactive: ERN1 = 0 | FGFR1 = 0 | FGFR2 = 0 | FGFR3 = 0 | FGR 0 | FLT3 = 0 | FYN 0 | GSK3A 0 | HER2 = 0 | INSRR 0

Cc1ccc(-c2nn(C(C)(C)CNC(=O)c3ccncc3)c3ncnc(N)c23)cc1 (2.5 µM)
inactive: ERN1 = 0 | FGFR1 = 0 | FGFR2 = 0 | FGFR3 = 0 | FGR 0 | FLT3 = 0 | FYN 0 | GSK3A 0 | HER2 = 0 | INSRR 0

CC(C)c1ccc(CC(=O)N2CCN(c3ccc(C#N)nn3)CC2)cc1 (10 µM)
inactive: ERN1 = 0 | FGFR1 = 0 | FGFR2 = 0 | FGFR3 = 0 | FGR 0 | FLT3 = 0 | FYN 0 | GSK3A 0 | HER2 = 0 | INSRR 0
